Data: publication PMC10082770
These are yes or no findings as the source states them, for the method shown. In cells and extracts the contact can be indirect. Some binding calls cover weakened binding; strength is not graded here. For some assays here: Tags and fused reporters may be left off the sequences shown.

Chains of the proteins cited; added tags and fusions are not shown.
UniProt Q9UMS4: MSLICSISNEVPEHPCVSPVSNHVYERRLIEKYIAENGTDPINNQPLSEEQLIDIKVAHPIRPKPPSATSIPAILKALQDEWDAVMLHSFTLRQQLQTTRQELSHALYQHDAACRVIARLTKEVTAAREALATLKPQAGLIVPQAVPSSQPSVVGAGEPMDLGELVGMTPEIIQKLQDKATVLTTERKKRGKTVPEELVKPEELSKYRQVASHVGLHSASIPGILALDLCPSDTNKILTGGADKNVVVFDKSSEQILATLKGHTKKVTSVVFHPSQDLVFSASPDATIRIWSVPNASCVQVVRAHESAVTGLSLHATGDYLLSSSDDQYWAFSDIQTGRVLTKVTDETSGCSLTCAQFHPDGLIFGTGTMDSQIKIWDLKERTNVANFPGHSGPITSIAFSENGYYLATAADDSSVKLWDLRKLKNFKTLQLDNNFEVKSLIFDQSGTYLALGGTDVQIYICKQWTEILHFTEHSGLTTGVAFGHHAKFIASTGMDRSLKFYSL

B1: HA-MYL9 (myosin light chain 9) (protein, UniProt P24844 1-172)
chain: MSSKRAKAKTTKKRPQRATSNVFAMFDQSQIQEFKEAFNMIDQNRDGFIDKEDLHDMLASLGKNPTDEYLEGMMSEAPGPINFTMFLTMFGEKLNGTDPEDVIRNAFACFDEEASGFIHEDHLRELLTTMGDRFTDEEVDEMYREAPIDKKGNFNYVEFTRILKHGAKDKDD
B2: MYL9 (endogenous) (protein, UniProt P24844 1-172)
chain: B1 chain

Experiments:
[1] = molecular target: Flag-PRPF19 (Pre-mRNA processing factor 19) (UniProt Q9UMS4); test: co-IP; DLD1 and HCT15 cells co-transfected with Flag-PRPF19 and HA-MYL9 for 48 h, MG132 for 5 h; IP anti-Flag with blot anti-HA, and IP anti-HA with blot anti-Flag
[2] = molecular target: PRPF19 (endogenous) (human (endogenous in DLD1, HCT15, HCT116)) (UniProt Q9UMS4); test: co-IP; endogenous proteins; DLD1, HCT15 and HCT116 cells, MG132 for 5 h; lysates immunoprecipitated with anti-IgG, anti-MYL9 or anti-PRPF19, then immunoblot

Row | binding [1] | binding [2] | Binder
1 | binds | – | B1
2 | – | binds | B2
